Source: PubChem BioAssay AID1053208 (Peter MacCallum Cancer Centre, 2014)

Assay: 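Synthetic lethal interactions between gene loss and doxorubicin in osteosarcoma cells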 (primary screen)
Cell system: mouse osteosarcoma cells, early-passage culture from an engineered mouse model of fibroblastic bone tumour
Reagents: siRNA pool against mouse genes, 40 nM
Timing: about 120 h (48 h before drug, then 72 h with drug)
Conditions: doxorubicin 100 nM for 72 h, roughly 30-40% inhibitory dose
Measured: 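Viability read as ATP luminescence after 72 h of 100 nM doxorubicin or none, duplicate wells averaged, scaled to non-targeting siRNA, then expressed as robust z-scores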
Direction: viability z-score with doxorubicin: higher = more viable cells under doxorubicin; viability z-score without drug: higher = more viable cells with knock-down alone
Active means: 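a pool counts as active when its viability z-score with doxorubicin is -2 or below and its z-score without drug lies between -2 and 2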
In all, the deposit lists about 17,000 reagents; shown is a random part of them. Over the whole deposit, 788 (4.7%) are marked active. 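Calls rest on z-score classes alone; an extra cut-off of viability at most 70% of control was not applied to them.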 The numbers tell different reagents against one gene apart. Not all columns of the deposit are shown.

| Target gene | pool no. | combined z-score class | viability z-score with doxorubicin | viability z-score without drug | Outcome |
| --- | --- | --- | --- | --- | --- |
| Sprn | 1 | no change with or without drug | 0.9 | -0.17 | inactive |
| Pramel3a | 1 | no change with or without drug | 1.35 | -1.85 | inactive |
| Sfxn5 | 1 | no change with or without drug | 0.56 | -0.51 | inactive |
| Chrna9 | 1 | no change with or without drug | -1.46 | -0.51 | inactive |
| Ddb1 | 1 | high cell count with doxorubicin only | 2.59 | -0.34 | inactive |
| Cadm4 | 1 | no change with or without drug | -1.35 | 0.34 | inactive |
| Psmd6 | 1 | low cell count with and without drug | -7.98 | -7.93 | inactive |
| Fxr1 | 1 | no change with or without drug | 0.45 | 0 | inactive |
| Adam22 | 1 | no change with or without drug | -0.45 | -0.51 | inactive |
| Smim14 | 1 | no change with or without drug | 0.67 | 0.51 | inactive |
| Or52n5 | 1 | no change with or without drug | 0.79 | 0.84 | inactive |
| Hspa5 | 1 | no change with or without drug | 0.22 | 1.18 | inactive |
| Dnajc14 | 1 | no change with or without drug | -0.79 | 0.17 | inactive |
| Cry1 | 1 | no change with or without drug | 1.12 | 0.17 | inactive |
| Rnmt | 1 | no change with or without drug | -1.91 | 0.17 | inactive |
| Aco1 | 1 | no change with or without drug | -1.01 | -0.51 | inactive |
| Fam234b | 1 | no change with or without drug | 0.34 | -0.51 | inactive |
| Tnfaip6 | 1 | no change with or without drug | -0.67 | 0.34 | inactive |
| Lonp2 | 1 | low cell count with doxorubicin only | -4.72 | -0.84 | active |
| Rgma | 1 | no change with or without drug | -1.57 | -0.51 | inactive |
| Cacng5 | 1 | no change with or without drug | 1.35 | 1.85 | inactive |
| Glyctk | 1 | no change with or without drug | 0.67 | 1.35 | inactive |
| Ankrd40 | 1 | no change with or without drug | -0.45 | -1.18 | inactive |
| Slc35f5 | 1 | low cell count with doxorubicin only | -5.17 | 0.17 | active |
| Tspan8 | 1 | no change with or without drug | 1.35 | 1.01 | inactive |
| Cyp2b19 | 1 | no change with or without drug | -0.45 | -0.17 | inactive |
| Sec61a2 | 1 | no change with or without drug | 0 | 0.17 | inactive |
| Ccdc70 | 1 | no change with or without drug | -1.12 | -0.84 | inactive |
| Litaf | 1 | low cell count with doxorubicin only | -2.25 | -1.52 | active |
| Pcsk1 | 1 | no change with or without drug | -0.67 | 0.34 | inactive |
| Mycbp2 | 1 | no change with or without drug | -1.46 | -0.51 | inactive |
| Kcnh1 | 1 | no change with or without drug | -0.34 | 1.01 | inactive |
| Prpf31 | 1 | low cell count without drug only | -1.57 | -2.02 | inactive |
| Gp5 | 1 | no change with or without drug | 0.22 | 0.67 | inactive |
| Slco1c1 | 1 | no change with or without drug | -0.9 | -1.85 | inactive |
| Tsga13 | 1 | no change with or without drug | -0.22 | 0 | inactive |
| Slc17a5 | 1 | no change with or without drug | -0.67 | -0.34 | inactive |
| Esr2 | 1 | high cell count without drug only | 0.56 | 2.02 | inactive |
| Chil4 | 1 | no change with or without drug | -0.67 | 0 | inactive |
| Or4p18 | 1 | no change with or without drug | -1.35 | -0.17 | inactive |
| Hdgfl3 | 1 | no change with or without drug | -0.67 | 0.34 | inactive |
| Pdcl2 | 1 | high cell count without drug only | 1.12 | 2.36 | inactive |
| Nckap1l | 1 | no change with or without drug | 0.45 | -0.51 | inactive |
| Efr3a | 1 | no change with or without drug | -0.67 | -0.17 | inactive |
| Efr3a | 2 | no change with or without drug | 1.46 | -1.18 | inactive |
| Pomp | 1 | low cell count without drug only | -1.12 | -2.53 | inactive |
| Wnk1 | 1 | no change with or without drug | 1.12 | -0.84 | inactive |
| Igsf5 | 1 | no change with or without drug | -0.67 | -0.17 | inactive |
| Phospho2 | 1 | no change with or without drug | -0.22 | -0.17 | inactive |
| Dusp8 | 1 | no change with or without drug | 0.11 | -0.84 | inactive |

An excerpt of the results above, for reference:
| Target gene | pool no. | combined z-score class | viability z-score with doxorubicin | viability z-score without drug | Outcome |
| --- | --- | --- | --- | --- | --- |
| Aco1 | 1 | no change with or without drug | -1.01 | -0.51 | inactive |
| Fam234b | 1 | no change with or without drug | 0.34 | -0.51 | inactive |
| Tnfaip6 | 1 | no change with or without drug | -0.67 | 0.34 | inactive |
| Lonp2 | 1 | low cell count with doxorubicin only | -4.72 | -0.84 | active |
| Rgma | 1 | no change with or without drug | -1.57 | -0.51 | inactive |
| Cacng5 | 1 | no change with or without drug | 1.35 | 1.85 | inactive |
